Measurements reported in PubChem BioAssay AID1259425 (University of Nebraska Medical Center, 2018)
Purpose: 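Find knockdowns that reproduce the gene expression pattern seen when KSR1 is lost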 (primary screen). Cells: HCT116 human colon cancer cells. Reagents: siRNA pool against human genes, 50 nM siRNA. Measured: 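After 50 nM siRNA pool, branched-DNA assay measures six marker transcripts per well, minus blank, normalised to the geometric mean of two housekeeping transcripts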. Reading the numbers: BNIP3L mRNA: higher = more BNIP3L transcript after knockdown; NDRG1 mRNA: higher = more NDRG1 transcript after knockdown.
This is a random part of about 14,000 reagents tested. Further read-outs or replicates are left out here. Not stated in the record: the time to read-out.

For ITM2C, what does the deposit list?
BNIP3L mRNA, set 1: 0.109; NDRG1 mRNA, set 1: 0.796

With SARS1, what was measured?
BNIP3L mRNA, set 1: 0.0563; NDRG1 mRNA, set 1: 0.175

Which result is listed for SLC6A3?
BNIP3L mRNA, set 1: 0.147; NDRG1 mRNA, set 1: 0.329

For HGFAC, how do the results read?
BNIP3L mRNA, set 1: 0.126; NDRG1 mRNA, set 1: 0.249

How did the screen score GJB4?
BNIP3L mRNA, set 1: 0.228; NDRG1 mRNA, set 1: 0.135

With KRT14, how do the results read?
BNIP3L mRNA, set 1: 0.102; NDRG1 mRNA, set 1: 0.18

What is on record for POLA1?
BNIP3L mRNA, set 1: 0.105; NDRG1 mRNA, set 1: 0.303

For VIPR1, what was measured?
BNIP3L mRNA, set 1: 0.0827; NDRG1 mRNA, set 1: 0.143

What is on record for CALR?
BNIP3L mRNA, set 1: 0.0216; NDRG1 mRNA, set 1: 0.292

For CDK20, what was measured?
BNIP3L mRNA, set 1: 0.0817; NDRG1 mRNA, set 1: 0.0956

For PTPRO, what was measured?
BNIP3L mRNA, set 1: 0.0585; NDRG1 mRNA, set 1: 0.196

Which result is listed for CFB?
BNIP3L mRNA, set 1: 0.115; NDRG1 mRNA, set 1: 0.14

Sorted by “NDRG1 mRNA, set 1” (high to low): 2 of the entries above
CALR | BNIP3L mRNA, set 1: 0.0216; NDRG1 mRNA, set 1: 0.292
VIPR1 | BNIP3L mRNA, set 1: 0.0827; NDRG1 mRNA, set 1: 0.143

Next results follow.
Which result is listed for TAS2R8?
BNIP3L mRNA, set 1: 0.188; NDRG1 mRNA, set 1: 0.104

For NR4A2, what does the deposit list?
BNIP3L mRNA, set 1: 0.123; NDRG1 mRNA, set 1: 0.115

What is on record for MPP2?
BNIP3L mRNA, set 1: 0.0778; NDRG1 mRNA, set 1: 0.183

Which result is listed for GRIK2?
BNIP3L mRNA, set 1: 0.0695; NDRG1 mRNA, set 1: 0.197

What did the screen give for ZNF547?
BNIP3L mRNA, set 1: 0.0539; NDRG1 mRNA, set 1: 0.0726

What did the screen give for MT1L?
BNIP3L mRNA, set 1: 0.0703; NDRG1 mRNA, set 1: 0.0939

What is on record for RNF125?
BNIP3L mRNA, set 1: 0.082; NDRG1 mRNA, set 1: 0.142

Which result is listed for SLC18A2?
BNIP3L mRNA, set 1: 0.105; NDRG1 mRNA, set 1: 0.316

With MYCN, what does the deposit list?
BNIP3L mRNA, set 1: 0.0978; NDRG1 mRNA, set 1: 0.169

What is on record for LIN7A?
BNIP3L mRNA, set 1: 0.0705; NDRG1 mRNA, set 1: 0.092

How did the screen score CD8B?
BNIP3L mRNA, set 1: 0.0778; NDRG1 mRNA, set 1: 0.0812

With TBC1D10A, how do the results read?
BNIP3L mRNA, set 1: 0.266; NDRG1 mRNA, set 1: 0.456

Which result is listed for TLK2?
BNIP3L mRNA, set 1: 0.0794; NDRG1 mRNA, set 1: 0.195

What is on record for SLC29A1?
BNIP3L mRNA, set 1: 0.074; NDRG1 mRNA, set 1: 0.0965

For RAPGEFL1, how do the results read?
BNIP3L mRNA, set 1: 0.0965; NDRG1 mRNA, set 1: 0.0869

For DSCAM, what was measured?
BNIP3L mRNA, set 1: 0.135; NDRG1 mRNA, set 1: 0.149
